The other results are listed elsewhere or left out.
compound: CC1Cc2ccccc2N1C(=O)C1CCCN(C1)C(=O)CCl (mixture of isomers) [TRIM25 ligand 11 (diastereomer mixture)]; assay: probe-labelled cysteine peptide fold change vs DMSO (competition) (log2 fold change); higher = less target engagement (more negative = stronger competition); conditions: 10 µM; THP-1; incubation time: 4 h
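Note: competitive chemoproteomic profiling in live THP-1 cells with an iodoacetamide desthiobiotin (IA-DTB) probe, comparing probe-labelled peptide intensities in compound-treated cells against DMSO-treated controls.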

In order of rising “probe-labelled cysteine peptide fold change” value:
1. PPP1R27_Q86WC6_79_KVSLATIHPSGLAALHEAVLSGNLECVK (UniProt Q86WC6)  -0.118
2. PRDX2_P32119_70_LGCEVLGVSVDSQFTHLAWINTPRK (UniProt P32119)  -0.0824
3. PPP1R3D_O95685_26_SLSCLSDLDGGVALEPR (UniProt O95685)  -0.077
4. PPP1R15B_Q5SWA1_686_IQETEDAIGYCLTFEHR (UniProt Q5SWA1)  -0.074
5. PPP3R1_P63098_154_ISFEEFCAVVGGLDIHKK (UniProt P63098)  -0.0562
6. PPP6C_O00743_262_LVTVWSAPNYCYR (UniProt O00743)  0.0237
7. PPIL4_Q8WUA2_294_EEDCEK (UniProt Q8WUA2)  0.0382
8. PREPL_Q4J6C6_160_LDQPFIDCIR (UniProt Q4J6C6)  0.0512
9. PRDX2_P32119_172_LVQAFQYTDEHGEVCPAGWKPGSDTIKPNVDDSK (UniProt P32119)  0.0559
10. PPP1R18_Q6NYC8_611_ALIVDESCR (UniProt Q6NYC8)  0.0833
11. PPP6R3_Q5H9R7_431_CQLIER (UniProt Q5H9R7)  0.132
12. PRDX3_P30048_229_AFQYVETHGEVCPANWTPDSPTIK (UniProt P30048)  0.132
13. PRDX1_Q06830_71_KLNCQVIGASVDSHFCHLAWVNTPK (UniProt Q06830)  0.142
14. PPP1CB_P62140_201_RIMRPTDVPDTGLLCDLLWSDPDK (UniProt P62140)  0.262
15. PRCP_P42785_233_SGPHCSESIHR (UniProt P42785)  0.424

— the supplement of paper PMC12067093, “Discovery and optimisation of a covalent ligand for TRIM25 and its application to targeted protein ubiquitination” (Chemical Science, 2025)
